The other results are listed elsewhere or left out.
Assays:
Test in all cases: log2 fold change, soluble protein after heating vs DMSO (PISA); higher = thermal stabilisation; K562 cells, 10 uM, 30 min; active = over 0.2 and 3.5 SD of the protein, either way, in both replicates (recomputed)
[1] = compound: NC(=O)Nc1cc(-c2cccc(F)c2)sc1C(=O)N[C@H]1CCCNC1
Outline: (§1)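 K562 cells at 2×10^6 cells/mL were treated for 30 min with 10 μM compound, and aliquots were heated for 3 min over 48°C-58°C before pooling. Extraction used PBS with 0.5% NP-40 at 4°C, and soluble protein was the supernatant after 21,000xg for 90 min, measured by TMTpro 16plex LC-MS/MS with channel sums equalised. Thermal stability values, relative to control samples and from duplicates, are log2 fold changes.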

Chains of the proteins cited; added tags and fusions are not shown. Lines headed by an entry give the natural chain unless they say otherwise; changes in a name come on top.
UniProt P51687: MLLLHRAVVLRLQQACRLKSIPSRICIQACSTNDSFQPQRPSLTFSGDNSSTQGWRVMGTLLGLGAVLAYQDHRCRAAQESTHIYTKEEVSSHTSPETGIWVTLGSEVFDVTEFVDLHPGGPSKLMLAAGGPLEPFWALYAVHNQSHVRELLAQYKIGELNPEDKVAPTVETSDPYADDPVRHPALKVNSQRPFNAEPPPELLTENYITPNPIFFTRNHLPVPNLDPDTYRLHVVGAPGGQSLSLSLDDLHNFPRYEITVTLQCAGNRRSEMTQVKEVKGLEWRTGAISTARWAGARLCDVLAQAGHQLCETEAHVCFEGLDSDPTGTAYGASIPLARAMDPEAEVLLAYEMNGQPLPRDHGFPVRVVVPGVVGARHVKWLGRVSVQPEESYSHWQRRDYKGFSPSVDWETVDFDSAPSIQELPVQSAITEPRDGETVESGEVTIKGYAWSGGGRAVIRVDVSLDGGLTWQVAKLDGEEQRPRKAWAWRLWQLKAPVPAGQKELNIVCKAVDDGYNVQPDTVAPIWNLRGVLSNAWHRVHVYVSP
UniProt P56962: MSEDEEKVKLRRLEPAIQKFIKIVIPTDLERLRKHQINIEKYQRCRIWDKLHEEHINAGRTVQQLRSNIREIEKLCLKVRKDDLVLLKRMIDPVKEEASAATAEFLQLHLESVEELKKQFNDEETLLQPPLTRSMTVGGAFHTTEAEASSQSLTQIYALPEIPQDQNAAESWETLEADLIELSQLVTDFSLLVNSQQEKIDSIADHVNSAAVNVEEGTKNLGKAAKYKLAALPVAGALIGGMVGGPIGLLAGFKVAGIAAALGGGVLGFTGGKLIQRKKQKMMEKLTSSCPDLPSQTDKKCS
UniProt Q9H2K8: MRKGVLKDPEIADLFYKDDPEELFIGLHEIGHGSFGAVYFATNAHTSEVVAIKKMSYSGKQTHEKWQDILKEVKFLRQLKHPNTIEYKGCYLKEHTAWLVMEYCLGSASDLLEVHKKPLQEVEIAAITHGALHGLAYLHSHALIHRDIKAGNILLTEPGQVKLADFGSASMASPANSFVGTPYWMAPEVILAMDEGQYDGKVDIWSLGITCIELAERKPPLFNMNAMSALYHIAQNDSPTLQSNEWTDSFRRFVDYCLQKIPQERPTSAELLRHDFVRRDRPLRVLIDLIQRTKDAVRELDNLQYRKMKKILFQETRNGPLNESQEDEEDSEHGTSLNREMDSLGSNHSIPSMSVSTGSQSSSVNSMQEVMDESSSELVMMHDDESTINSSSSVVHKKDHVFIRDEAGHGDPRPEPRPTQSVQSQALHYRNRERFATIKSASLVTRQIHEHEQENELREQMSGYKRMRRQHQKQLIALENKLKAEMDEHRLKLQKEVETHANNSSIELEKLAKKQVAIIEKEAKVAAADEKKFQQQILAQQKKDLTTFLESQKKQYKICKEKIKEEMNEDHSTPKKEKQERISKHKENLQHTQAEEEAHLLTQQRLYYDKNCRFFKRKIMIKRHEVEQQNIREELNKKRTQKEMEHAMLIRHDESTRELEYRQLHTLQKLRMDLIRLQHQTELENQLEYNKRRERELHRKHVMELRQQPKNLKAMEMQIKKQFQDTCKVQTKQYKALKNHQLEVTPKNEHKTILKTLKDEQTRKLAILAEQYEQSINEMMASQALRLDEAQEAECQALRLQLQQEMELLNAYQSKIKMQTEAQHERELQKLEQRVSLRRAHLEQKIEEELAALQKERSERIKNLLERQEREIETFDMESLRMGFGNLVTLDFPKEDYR
UniProt Q15526: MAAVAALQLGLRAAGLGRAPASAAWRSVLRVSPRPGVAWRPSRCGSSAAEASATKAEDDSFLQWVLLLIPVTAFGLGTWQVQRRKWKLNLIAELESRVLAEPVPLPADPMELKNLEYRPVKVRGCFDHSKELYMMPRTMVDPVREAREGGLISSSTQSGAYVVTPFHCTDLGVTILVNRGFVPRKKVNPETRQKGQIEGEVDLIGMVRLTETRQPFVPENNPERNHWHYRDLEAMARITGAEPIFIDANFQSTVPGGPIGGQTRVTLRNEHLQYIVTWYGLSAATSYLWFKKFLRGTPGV
UniProt Q15208: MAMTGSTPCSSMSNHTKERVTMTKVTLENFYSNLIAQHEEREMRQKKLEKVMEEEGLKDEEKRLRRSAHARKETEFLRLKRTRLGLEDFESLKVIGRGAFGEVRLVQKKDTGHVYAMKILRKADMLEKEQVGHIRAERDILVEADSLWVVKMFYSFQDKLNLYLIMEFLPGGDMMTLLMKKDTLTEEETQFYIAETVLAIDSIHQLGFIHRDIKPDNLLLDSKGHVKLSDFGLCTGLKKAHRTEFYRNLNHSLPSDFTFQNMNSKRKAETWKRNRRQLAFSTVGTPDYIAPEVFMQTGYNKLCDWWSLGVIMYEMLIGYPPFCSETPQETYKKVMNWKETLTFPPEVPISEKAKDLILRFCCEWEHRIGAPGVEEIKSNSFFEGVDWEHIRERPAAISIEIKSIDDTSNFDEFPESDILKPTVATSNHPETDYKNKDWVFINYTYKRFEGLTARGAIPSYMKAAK
UniProt O60506: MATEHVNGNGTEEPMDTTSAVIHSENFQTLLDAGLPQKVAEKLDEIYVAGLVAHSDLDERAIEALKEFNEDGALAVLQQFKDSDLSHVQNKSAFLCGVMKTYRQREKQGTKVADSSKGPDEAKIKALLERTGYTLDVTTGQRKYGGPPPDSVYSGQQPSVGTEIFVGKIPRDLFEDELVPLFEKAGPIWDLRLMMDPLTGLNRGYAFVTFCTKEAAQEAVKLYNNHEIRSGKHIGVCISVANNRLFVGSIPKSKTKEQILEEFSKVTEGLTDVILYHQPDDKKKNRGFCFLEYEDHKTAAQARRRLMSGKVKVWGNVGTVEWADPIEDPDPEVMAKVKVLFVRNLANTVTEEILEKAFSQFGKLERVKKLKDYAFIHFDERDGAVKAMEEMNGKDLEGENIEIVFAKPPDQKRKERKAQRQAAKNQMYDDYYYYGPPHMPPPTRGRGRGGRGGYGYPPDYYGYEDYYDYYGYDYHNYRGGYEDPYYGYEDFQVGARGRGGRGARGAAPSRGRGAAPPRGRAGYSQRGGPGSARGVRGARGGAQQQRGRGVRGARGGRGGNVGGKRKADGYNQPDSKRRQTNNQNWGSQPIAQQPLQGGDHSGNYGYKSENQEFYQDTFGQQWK
UniProt Q12846: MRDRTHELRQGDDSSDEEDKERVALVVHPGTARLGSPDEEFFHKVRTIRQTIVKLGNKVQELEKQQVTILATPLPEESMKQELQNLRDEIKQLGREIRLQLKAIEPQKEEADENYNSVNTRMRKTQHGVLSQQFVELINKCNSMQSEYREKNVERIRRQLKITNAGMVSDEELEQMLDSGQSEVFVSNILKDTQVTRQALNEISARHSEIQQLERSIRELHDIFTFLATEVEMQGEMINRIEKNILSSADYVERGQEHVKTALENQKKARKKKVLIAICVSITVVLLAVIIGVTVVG
UniProt O15260: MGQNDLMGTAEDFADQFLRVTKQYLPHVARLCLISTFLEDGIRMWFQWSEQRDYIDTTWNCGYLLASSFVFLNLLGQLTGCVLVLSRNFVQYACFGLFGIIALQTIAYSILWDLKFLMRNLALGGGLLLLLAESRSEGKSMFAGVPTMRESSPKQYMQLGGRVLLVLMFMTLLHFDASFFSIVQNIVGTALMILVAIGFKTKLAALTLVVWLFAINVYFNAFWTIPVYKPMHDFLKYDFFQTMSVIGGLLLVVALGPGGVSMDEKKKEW
UniProt O15056: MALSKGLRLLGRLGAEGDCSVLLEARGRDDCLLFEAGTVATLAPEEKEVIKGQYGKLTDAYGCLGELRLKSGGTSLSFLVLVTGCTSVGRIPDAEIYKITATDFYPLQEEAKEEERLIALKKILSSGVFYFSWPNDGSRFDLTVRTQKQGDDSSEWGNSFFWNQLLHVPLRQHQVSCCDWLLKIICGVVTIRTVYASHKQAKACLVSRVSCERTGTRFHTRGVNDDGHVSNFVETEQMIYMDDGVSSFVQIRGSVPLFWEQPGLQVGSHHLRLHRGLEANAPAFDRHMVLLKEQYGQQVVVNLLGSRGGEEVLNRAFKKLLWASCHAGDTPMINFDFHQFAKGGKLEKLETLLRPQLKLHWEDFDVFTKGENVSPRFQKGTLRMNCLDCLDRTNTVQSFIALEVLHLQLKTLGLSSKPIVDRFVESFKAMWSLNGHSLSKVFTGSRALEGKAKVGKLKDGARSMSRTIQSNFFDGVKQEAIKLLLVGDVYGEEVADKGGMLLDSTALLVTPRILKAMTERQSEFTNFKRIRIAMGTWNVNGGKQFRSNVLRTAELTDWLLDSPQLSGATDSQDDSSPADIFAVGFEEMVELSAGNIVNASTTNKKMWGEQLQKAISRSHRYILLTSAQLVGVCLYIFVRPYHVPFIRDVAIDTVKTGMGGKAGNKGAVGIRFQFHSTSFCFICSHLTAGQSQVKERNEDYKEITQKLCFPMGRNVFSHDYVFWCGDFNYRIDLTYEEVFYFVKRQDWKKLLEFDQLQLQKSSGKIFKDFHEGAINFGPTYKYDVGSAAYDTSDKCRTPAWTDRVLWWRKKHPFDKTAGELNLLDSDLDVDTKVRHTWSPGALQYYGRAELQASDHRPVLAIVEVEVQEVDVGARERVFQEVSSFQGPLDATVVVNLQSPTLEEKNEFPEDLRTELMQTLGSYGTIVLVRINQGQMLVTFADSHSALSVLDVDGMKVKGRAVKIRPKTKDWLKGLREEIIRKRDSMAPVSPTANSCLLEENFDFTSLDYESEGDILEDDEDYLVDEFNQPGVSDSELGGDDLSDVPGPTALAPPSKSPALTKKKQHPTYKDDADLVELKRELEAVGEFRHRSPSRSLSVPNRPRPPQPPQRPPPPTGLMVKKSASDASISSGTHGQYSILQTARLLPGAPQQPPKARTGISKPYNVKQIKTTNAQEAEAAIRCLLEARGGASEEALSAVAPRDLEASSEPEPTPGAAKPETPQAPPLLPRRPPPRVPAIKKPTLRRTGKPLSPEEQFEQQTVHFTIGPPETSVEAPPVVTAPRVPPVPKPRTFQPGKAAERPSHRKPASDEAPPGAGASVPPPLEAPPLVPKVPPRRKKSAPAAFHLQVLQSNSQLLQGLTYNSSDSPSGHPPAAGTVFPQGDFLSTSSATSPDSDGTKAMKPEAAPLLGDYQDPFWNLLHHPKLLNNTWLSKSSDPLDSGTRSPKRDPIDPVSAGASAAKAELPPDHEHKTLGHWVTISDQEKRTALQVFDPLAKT
UniProt Q13277: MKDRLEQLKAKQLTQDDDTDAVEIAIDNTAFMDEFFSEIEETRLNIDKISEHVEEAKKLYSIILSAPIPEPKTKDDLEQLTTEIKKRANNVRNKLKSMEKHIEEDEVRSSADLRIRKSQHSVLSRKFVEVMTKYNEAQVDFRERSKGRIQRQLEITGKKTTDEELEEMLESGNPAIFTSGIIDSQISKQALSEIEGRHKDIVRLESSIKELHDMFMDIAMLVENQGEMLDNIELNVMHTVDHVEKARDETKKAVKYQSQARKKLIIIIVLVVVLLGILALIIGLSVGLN
UniProt P55854, whole entry, looked up: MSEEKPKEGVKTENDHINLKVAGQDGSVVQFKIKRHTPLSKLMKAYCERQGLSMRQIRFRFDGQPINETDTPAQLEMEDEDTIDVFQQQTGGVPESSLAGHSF
UniProt Q15633: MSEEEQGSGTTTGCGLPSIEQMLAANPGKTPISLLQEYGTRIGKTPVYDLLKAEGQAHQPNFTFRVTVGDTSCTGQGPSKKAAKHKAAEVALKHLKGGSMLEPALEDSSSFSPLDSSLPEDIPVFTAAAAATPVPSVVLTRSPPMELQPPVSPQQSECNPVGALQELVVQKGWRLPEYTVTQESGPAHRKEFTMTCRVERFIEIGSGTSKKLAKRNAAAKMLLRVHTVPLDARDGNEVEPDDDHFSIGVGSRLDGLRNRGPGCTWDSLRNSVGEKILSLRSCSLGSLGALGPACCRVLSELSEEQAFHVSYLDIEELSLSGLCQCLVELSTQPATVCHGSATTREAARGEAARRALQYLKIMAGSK
UniProt O43752: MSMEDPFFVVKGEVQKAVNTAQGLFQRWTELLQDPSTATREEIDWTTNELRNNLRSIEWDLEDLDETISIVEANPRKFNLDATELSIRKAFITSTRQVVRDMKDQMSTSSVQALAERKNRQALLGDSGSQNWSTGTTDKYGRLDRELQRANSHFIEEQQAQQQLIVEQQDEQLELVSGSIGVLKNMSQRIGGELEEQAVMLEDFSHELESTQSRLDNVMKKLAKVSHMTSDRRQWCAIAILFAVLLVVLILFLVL
UniProt Q9UJZ1: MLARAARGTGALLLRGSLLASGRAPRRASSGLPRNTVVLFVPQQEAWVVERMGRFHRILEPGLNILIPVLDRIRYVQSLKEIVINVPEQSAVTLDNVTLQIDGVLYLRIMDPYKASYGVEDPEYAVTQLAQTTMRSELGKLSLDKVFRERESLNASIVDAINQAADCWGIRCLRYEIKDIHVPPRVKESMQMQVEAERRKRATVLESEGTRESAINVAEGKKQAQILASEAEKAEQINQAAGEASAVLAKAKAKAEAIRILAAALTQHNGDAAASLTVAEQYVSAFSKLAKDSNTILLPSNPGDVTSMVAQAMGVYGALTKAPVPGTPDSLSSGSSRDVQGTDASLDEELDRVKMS

[2] = compound: NC(=O)c1cnc(N[C@@H]2CCCC[C@@H]2N)nc1Nc1cccc(-n2nccn2)c1
Outline: as §1

[3] = compound: NC1(c2ccc(-c3nc4ccn5c(=O)[nH]nc5c4cc3-c3ccccc3)cc2)CCC1
Outline: as §1

[4] = compound: NCC(=O)Nc1ccc(-n2nc(C(F)(F)F)cc2-c2ccc3c(ccc4ccccc43)c2)cc1
Outline: as §1

[5] = compound: Nc1ccccc1NC(=O)c1ccc(CNC(=O)OCc2cccnc2)cc1 [entinostat]
Outline: as §1

[6] = compound: O=C(CCCCCCC(=O)Nc1ccccc1)NO [vorinostat]
Outline: as §1

[7] = compound: O=C(CCCCCCNC(=O)c1cnc(N(c2ccccc2)c2ccccc2Cl)nc1)NO [citarinostat]
Outline: as §1

[8] = compound: O=C(O)c1ccc2c(c1)nc(Nc1cccc(Cl)c1)c1ccncc12 [silmitasertib]
Outline: as §1

[9] = compound: O=C1NC(=O)C(c2cnc3ccccn23)=C1c1cn2c3c(cc(F)cc13)CN(C(=O)N1CCCCC1)CC2
Outline: as §1

[10] = compound: c1cc(OCCN2CCCCC2)cc(-c2n[nH]c3ccc(-c4nnc[nH]4)cc23)c1
Outline: as §1

[11] = compound: c1cn2cc(-c3ccc4cn[nH]c4c3)nc(Nc3ccc(N4CCOCC4)cc3)c2n1 [entospletinib]
Outline: as §1

Target | log2 fold change [1] | log2 fold change [2] | log2 fold change [3] | log2 fold change [4] | log2 fold change [5] | log2 fold change [6] | log2 fold change [7] | log2 fold change [8] | log2 fold change [9] | log2 fold change [10] | log2 fold change [11]
SUGP1 (UniProt Q8IWZ8) | inactive: 0 | inactive: -0.05 | inactive: -0.073 | inactive: -0.071 | inactive: 0.054 | inactive: 0.077 | inactive: 0.074 | inactive: 0.101 | inactive: -0.065 | inactive: 0.045 | 
SUOX (UniProt P51687) | inactive: -0.031 | inactive: -0.022 | inactive: 0.025 | inactive: -0.005 | inactive: -0.014 | inactive: -0.124 | inactive: -0.017 | inactive: -0.021 | inactive: -0.027 | inactive: 0.014 | 
SUN2 (UniProt Q9UH99) | inactive: 0.002 | inactive: 0.011 | inactive: -0.054 | inactive: -0.03 | inactive: 0.054 | inactive: 0.018 | inactive: 0.019 | inactive: 0.007 | inactive: 0.097 | inactive: -0.087 | 
STX17 (UniProt P56962) | inactive: 0.027 | inactive: -0.073 | inactive: -0.096 | inactive: 0.126 | inactive: -0.001 | inactive: -0.02 | inactive: 0.254 | inactive: 0.087 | inactive: -0.026 | inactive: -0.059 | 
TAOK3 (UniProt Q9H2K8) | inactive: -0.013 | inactive: -0.149 | inactive: -0.048 | inactive: 0 | inactive: 0.034 | inactive: 0.036 | inactive: 0.106 | inactive: 0 | inactive: 0.021 | inactive: -0.203 | 
SURF1 (UniProt Q15526) | inactive: -0.007 | inactive: 0.014 | inactive: -0.176 | inactive: -0.135 | inactive: 0.077 | inactive: 0.059 | inactive: 0.112 | inactive: -0.04 | inactive: -0.031 | inactive: -0.043 | 
TARS2 (UniProt Q9BW92) | inactive: 0.008 | inactive: -0.018 | active: -0.27 | inactive: -0.031 | inactive: 0.011 | inactive: -0.051 | inactive: 0.038 | inactive: -0.005 | inactive: -0.057 | inactive: -0.008 | 
STK38 (UniProt Q15208) | inactive: -0.072 | inactive: -0.077 | inactive: -0.11 | inactive: -0.062 | inactive: 0.129 | inactive: 0.016 | inactive: 0.097 | inactive: 0.061 | inactive: 0.004 | inactive: -0.086 | 
STRBP (UniProt Q96SI9) | inactive: -0.153 | inactive: 0.02 | inactive: 0.064 | inactive: -0.283 | inactive: 0.028 |  | inactive: -0.113 | inactive: 0.01 | inactive: 0.147 | inactive: -0.198 | inactive: 0.068
SURF6 (UniProt O75683) | inactive: 0.073 | inactive: 0.01 | inactive: 0.154 | inactive: 0.12 | inactive: -0.106 | inactive: -0.009 | inactive: -0.102 | inactive: 0.147 | inactive: 0.43 | inactive: -0.035 | inactive: 0.011
SYNCRIP isoform 3 (UniProt O60506) | inactive: -0.042 | inactive: -0.062 | inactive: 0.151 | inactive: 0.01 | inactive: 0.227 | inactive: 0.061 | inactive: -0.1 | inactive: 0.112 | inactive: 0.198 | inactive: -0.128 | inactive: 0.176
SUB1 (UniProt P53999) | inactive: -0.007 | inactive: -0.009 | inactive: 0.008 | inactive: -0.018 | inactive: -0.025 | inactive: -0.002 | inactive: -0.035 | inactive: -0.02 | inactive: -0.06 | inactive: 0.062 | inactive: -0.007
TAF6L (UniProt Q9Y6J9) | inactive: -0.038 | inactive: -0.067 | inactive: -0.061 |  | inactive: 0.033 | inactive: 0.248 |  | inactive: 0.303 |  |  | 
STX4 (UniProt Q12846) | inactive: -0.13 | inactive: 0.07 | inactive: 0.029 | inactive: -0.015 | inactive: -0.005 | inactive: -0.004 | inactive: 0.022 | inactive: 0.014 | inactive: -0.063 | inactive: 0.048 | inactive: -0.039
SURF4 (UniProt O15260) | inactive: -0.002 | inactive: -0.011 | inactive: -0.01 | inactive: 0.021 | inactive: -0.02 | inactive: -0.046 | inactive: 0.031 | inactive: 0.022 | inactive: 0.028 | inactive: -0.037 | inactive: 0.011
SYNJ2 (UniProt O15056) | inactive: -0.274 | inactive: -0.094 | inactive: -0.131 | inactive: -0.169 | inactive: 0.065 | inactive: 0.06 |  | inactive: 0.012 | inactive: 0.044 |  | 
SUPT6H (UniProt Q7KZ85) | inactive: -0.176 | inactive: -0.066 | inactive: -0.127 | inactive: -0.24 | inactive: 0.129 | inactive: 0.122 | inactive: -0.169 | inactive: -0.07 | inactive: -0.189 | inactive: -0.081 | inactive: 0.068
SUMF1 isoform 3 (UniProt Q8NBK3) | inactive: 0.214 | inactive: 0.063 | inactive: -0.062 | inactive: -0.098 | inactive: 0.057 | inactive: -0.072 |  | inactive: 0.042 | inactive: -0.027 |  | 
SUMO2 (UniProt P61956) | inactive: 0.063 | inactive: 0.058 | inactive: 0.146 | inactive: 0.109 | inactive: -0.056 | inactive: -0.095 | inactive: -0.111 | inactive: -0.005 |  | inactive: -0.073 | inactive: 0.089
STXBP3 (UniProt O00186) | inactive: -0.061 | inactive: -0.045 | inactive: -0.101 | inactive: -0.077 | inactive: 0.058 | inactive: 0.106 | inactive: 0.024 | inactive: 0.004 | inactive: 0.082 | inactive: -0.062 | inactive: 0.059
STX3 (UniProt Q13277) | inactive: -0.022 | inactive: -0.021 | inactive: -0.063 | inactive: 0.111 | inactive: 0.008 | inactive: -0.024 | inactive: 0.171 | inactive: 0.023 | inactive: -0.035 | inactive: 0.101 | inactive: -0.036
TATDN1 (UniProt Q6P1N9) | inactive: -0.039 | inactive: 0.045 | inactive: -0.016 | inactive: 0.001 | inactive: -0.006 | inactive: 0.002 | inactive: 0.005 | inactive: 0.033 | inactive: 0.02 | inactive: 0.01 | inactive: -0.014
SUMO3 isoform 2 (UniProt P55854) | inactive: 0.014 | inactive: 0.034 | inactive: 0.106 | inactive: 0.021 | inactive: -0.115 | inactive: -0.056 | inactive: -0.014 | inactive: -0.008 | inactive: 0 | inactive: -0.127 | inactive: 0.068
TAL1 (UniProt P17542) | inactive: 0.035 | inactive: 0.008 | inactive: -0.039 | inactive: -0.048 | inactive: -0.044 | inactive: -0.028 | inactive: 0.031 | inactive: 0.009 | inactive: -0.072 | inactive: -0.032 | inactive: -0.029
TARBP2 (UniProt Q15633) | inactive: 0.021 | inactive: -0.047 | inactive: 0.011 | inactive: -0.033 | inactive: -0.241 | inactive: -0.14 | inactive: -0.079 | inactive: 0.113 | inactive: 0.108 | inactive: -0.17 | inactive: 0.128
TACC2 (UniProt O95359) | inactive: -0.013 | inactive: -0.027 | inactive: -0.052 | inactive: -0.187 | inactive: 0.035 | inactive: -0.033 | inactive: 0.003 | inactive: 0.116 |  | inactive: -0.073 | 
STX6 (UniProt O43752) | inactive: -0.017 | inactive: 0.046 | inactive: 0.032 | inactive: 0.007 | inactive: -0.039 | inactive: -0.049 | inactive: 0.008 | inactive: 0.037 | inactive: -0.064 | inactive: -0.053 | inactive: -0.005
STX8 (UniProt Q9UNK0) | inactive: 0.067 | inactive: 0.042 | inactive: -0.073 | inactive: 0.022 | inactive: -0.007 | inactive: -0.018 | inactive: 0.006 | inactive: 0.041 | inactive: 0.028 | inactive: -0.03 | inactive: -0.008
STOML2 (UniProt Q9UJZ1) | inactive: 0.052 | inactive: 0 | inactive: -0.009 | inactive: 0.031 | inactive: -0.008 | inactive: -0.055 | inactive: 0.013 | inactive: -0.013 | inactive: -0.027 | inactive: 0.107 | inactive: -0.035

In a second layout: results already given
Target	log2 fold change [1]	log2 fold change [2]	log2 fold change [3]	log2 fold change [4]	log2 fold change [5]	log2 fold change [6]	log2 fold change [7]	log2 fold change [8]	log2 fold change [9]	log2 fold change [10]	log2 fold change [11]
SUGP1 (UniProt Q8IWZ8)	inactive: 0	inactive: -0.05	inactive: -0.073	inactive: -0.071	inactive: 0.054	inactive: 0.077	inactive: 0.074	inactive: 0.101	inactive: -0.065	inactive: 0.045	
SUOX (UniProt P51687)	inactive: -0.031	inactive: -0.022	inactive: 0.025	inactive: -0.005	inactive: -0.014	inactive: -0.124	inactive: -0.017	inactive: -0.021	inactive: -0.027	inactive: 0.014	
